Data as given in US20110165603A1, “SMALL MOLECULE FLUORESCENT SENSORS FOR DETECTION OF POST-TRANSLATIONALMODIFICATIONS AND PROTEIN INTERACTIONS IN BIOASSAYS” (Gyrasol Technologies Inc., priority 2008, published 2011).

Test system: Protein Kinase A (PKA)
Experiment: Inhibition of Kemptide phosphorylation in mouse brain lysates (zirconyl sensor fluorescence quench)
Assay type: biochemical
Details: mouse brain lysate, Chromeo642-labeled Kemptide, FIG. 18

## CN[C@@H]1C[C@H]2O[C@@](C)([C@@H]1OC)n1c3ccccc3c3c4c(c5c6ccccc6n2c5c31)C(=O)NC4 [Staurosporine]
  inhibition of Kemptide phosphorylation: minimally higher potency than the PKA specific inhibitor
Listed as staurosporine
  inhibition of Kemptide phosphorylation: almost identical to the inhibition achieved using a PKA-specific competitive substrate inhibitor
